Data as given in PubChem BioAssay AID686938 (Drosophila RNAi Screening Center, 2013)

Screen: 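Looking for CRAC channel components and the factors controlling them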 (primary screen)
Cells: Drosophila S2R+ cells
Knock-down reagent: long dsRNA against Drosophila genes, about 0.25 µg dsRNA per well, roughly 10,000 cells
Timing: 5 days of knock-down before the calcium assay
Conditions: thapsigargin (SERCA pump blocker) to empty calcium stores; entry signal taken 4 min after adding it
Read-out: 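Duplicate raw fluo-4 intensities per well from a plate reader, at rest and four minutes after thapsigargin emptied calcium stores; entry-to-rest ratio filled for only some wells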
Scale: calcium entry signal: higher = stronger calcium signal after store depletion; entry to resting ratio: higher = more calcium entry relative to resting level; resting calcium signal: higher = higher resting calcium signal
Hit rule: 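Hit if the duplicate-averaged plate z-score for entry over resting signal is under −3; wells with weak total dye signal (Fmax z < −2) or more than 5 off-targets removed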
Meaning of the calls: active = strongly reduced calcium entry; inactive = no strong reduction
In all, the deposit lists about 23,000 reagents; below is an unselected part of those with a known target gene and a result. Of all reagents, 75 (0.33%) got an active call. 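Raw plate signals without normalisation; calls rest on plate z-scores that were not deposited; ratio present for only 364 wells.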 Reagents against one gene are numbered here. A plus sign joins genes that one reagent is predicted to hit. Not given: the dose of the treatment.

no.	gene	reagent	calcium entry signal, replicate 1 (fluorescence units)	calcium entry signal, replicate 2 (fluorescence units)	entry to resting ratio	resting calcium signal, replicate 1 (fluorescence units)	resting calcium signal, replicate 2 (fluorescence units)	call
1	Atf6	1	3.47e7	3.31e7		1.71e7	1.67e7	inactive
2	Atf6	2	3.11e7	3.71e7		1.68e7	1.64e7	inactive
3	mge (maggie)	1	3.29e7	2.77e7		1.74e7	1.32e7	inactive
4	CG31388	1	2.66e7	3.16e7		1.15e7	1.49e7	inactive
5	Cbp20 (cap binding protein 20)	1	1.42e7	1.83e7		9.23e6	4.78e7	inactive
6	lute	1	3.26e7	5.18e7		1.59e7	5.17e7	inactive
7	lute	2	3.54e7	3.54e7		1.83e7	1.69e7	inactive
8	Gsc (Goosecoid)	1	3.00e7	4.06e7		1.54e7	1.82e7	inactive
9	bin (biniou)	1	3.78e7	4.74e7		1.82e7	2.26e7	inactive
10	Gug (Grunge)	1	2.64e7	5.16e7		1.28e7	2.06e7	inactive
11	Gr58a (Gustatory receptor 58a)	1	2.43e7	4.40e7		1.12e7	1.65e7	inactive
12	CG3610	1	3.40e7	4.68e7		1.72e7	7.23e7	inactive
13	CG9263	1	3.57e7	2.29e7		1.66e7	1.15e7	inactive
14	CG15125	1	5.96e7	6.01e7		2.27e7	2.71e7	inactive
15	Gr63a (Gustatory receptor 63a)	1	3.28e7	4.28e7		1.69e7	1.95e7	inactive
16	bam (bag of marbles)	1	3.74e7	6.09e7		1.94e7	2.48e7	inactive
17	CR43361 (pseudo)	1	5.42e7	4.86e7	2.1	2.54e7	2.03e7	inactive
18	eIF2alpha (eukaryotic translation initiation factor 2 subunit alpha)	1	2.15e7	1.64e7		1.28e7	9.50e6	inactive
19	Gcna (Germ cell nuclear acidic peptidase)	1	2.38e7	3.20e7		1.20e7	1.62e7	inactive
20	Ag5r2 (Antigen 5-related 2)	1	3.32e7	3.12e7		1.79e7	1.46e7	inactive
21	CG14646	1	4.05e7	6.85e7		1.95e7	3.20e7	inactive
22	CG14646	2	2.47e7	2.47e7		1.37e7	1.17e7	inactive
23	arg (arginase)	1	5.00e7	5.90e7		2.30e7	2.57e7	inactive
24	LKRSDH (Lysine ketoglutarate reductase/saccharopine dehydrogenase)	1	4.19e7			2.22e7		inactive
25	SP2353	1	4.29e7	4.39e7		1.76e7	2.05e7	inactive
26	CG10793	1	3.79e7	3.69e7	2.2	1.73e7	1.69e7	inactive
27	CG13557	1	4.18e7	4.82e7		2.02e7	2.23e7	inactive
28	asRNA:Eig63F-2 + Eip63F-1	1	3.46e7	3.24e7		2.05e7	1.52e7	inactive
29	CG17486	1	4.06e7	3.49e7		1.76e7	1.72e7	inactive
30	mRpL19 (mitochondrial ribosomal protein L19)	1	3.70e7	4.59e7		1.85e7	2.30e7	inactive
31	mRpL19 (mitochondrial ribosomal protein L19)	2	4.13e7	3.14e7		2.23e7	1.50e7	inactive
32	Desat2 (Desaturase 2)	1	4.15e7	3.65e7		1.93e7	1.82e7	inactive
33	Hsepi (Heparan sulfate C5-epimerase)	1	4.69e7	4.58e7		2.30e7	2.17e7	inactive
34	Sfp53D (Seminal fluid protein 53D)	1	2.57e7	5.84e7		1.26e7	2.57e7	inactive
35	nAChRalpha1 (nicotinic Acetylcholine Receptor alpha1)	1	3.93e7	3.25e7		1.94e7	1.77e7	inactive
36	nAChRalpha1 (nicotinic Acetylcholine Receptor alpha1)	2	4.00e7	4.12e7		1.87e7	2.18e7	inactive
37	nAChRalpha1 (nicotinic Acetylcholine Receptor alpha1)	3	4.09e7	4.16e7		1.83e7	1.85e7	inactive
38	nAChRalpha1 (nicotinic Acetylcholine Receptor alpha1)	4	3.86e7	4.84e7		2.10e7	1.83e7	inactive
39	ReepB (Receptor expression enhancing protein B)	1	4.47e7	4.14e7		1.73e7	1.88e7	inactive
40	BomT2 (Bomanin Tailed 2)	1	4.41e7	5.56e7		1.83e7	2.48e7	inactive
41	CG12017	1	2.22e7	2.64e7		1.13e7	1.32e7	inactive
42	CG3598	1	4.45e7	5.35e7	2.2	2.02e7	2.10e7	inactive
43	pkaap	1	4.81e7	3.33e7		2.06e7	1.57e7	inactive
44	Ifrd1 (Interferon-related developmental regulator 1)	1	2.50e7	1.93e7		1.27e7	9.68e6	inactive
45	Ifrd1 (Interferon-related developmental regulator 1)	2	2.75e7	2.28e7		1.37e7	1.16e7	inactive
46	CG32259	1	4.19e7	4.33e7		2.17e7	2.10e7	inactive
47	Alg2 (ALG2, alpha-1,3/1,6-mannosyltransferase)	1	2.89e7	2.22e7		2.08e7	9.82e6	inactive
48	Cdc37 (Cell division cycle 37)	1	4.45e7	3.89e7		2.40e7	2.17e7	inactive
49	Elba2 (Early boundary activity 2)	1	4.54e7			1.92e7		inactive
50	CG14913	1	2.85e7	3.73e7		1.38e7	1.54e7	inactive
51	CG13871	1	5.41e7	5.86e7		2.22e7	2.58e7	inactive
52	CG33110	1	2.97e7	4.11e7		1.66e7	1.87e7	inactive
53	CG33110	2	3.75e7	6.28e7		1.81e7	2.13e7	inactive
54	Mst33A	1	3.64e7	4.26e7		1.79e7	1.82e7	inactive
55	mei-S332 (meiotic from via Salaria 332)	1	2.93e7			1.51e7		inactive
56	DCP1 (Decapping protein 1)	1	3.83e7			1.87e7		inactive
57	Ca-beta (Ca2+-channel-protein-beta-subunit)	1	3.87e7	6.08e7		1.96e7	2.46e7	inactive
58	Ca-beta (Ca2+-channel-protein-beta-subunit)	2	3.77e7	5.20e7		1.90e7	2.01e7	inactive
59	Ca-beta (Ca2+-channel-protein-beta-subunit)	3	3.50e7	7.34e7		1.80e7	2.62e7	inactive
60	Ca-beta (Ca2+-channel-protein-beta-subunit)	4	4.31e7	3.62e7		2.57e7	1.75e7	inactive

6 entries from above, arranged by “resting calcium signal, replicate 1 (fluorescence units)”, high to low:
gene	reagent	calcium entry signal, replicate 1 (fluorescence units)	calcium entry signal, replicate 2 (fluorescence units)	entry to resting ratio	resting calcium signal, replicate 1 (fluorescence units)	resting calcium signal, replicate 2 (fluorescence units)	call
CR43361 (pseudo)	1	5.42e7	4.86e7	2.1	2.54e7	2.03e7	inactive
CG15125	1	5.96e7	6.01e7		2.27e7	2.71e7	inactive
bam (bag of marbles)	1	3.74e7	6.09e7		1.94e7	2.48e7	inactive
CG3610	1	3.40e7	4.68e7		1.72e7	7.23e7	inactive
Gr63a (Gustatory receptor 63a)	1	3.28e7	4.28e7		1.69e7	1.95e7	inactive
CG9263	1	3.57e7	2.29e7		1.66e7	1.15e7	inactive
